Measured values as given in PMC9194504, “Chondroitin Sulfates Control Invasiveness of the Basal-Like Breast Cancer Cell Line MDA-MB-231 Through ROR1” (Frontiers in Oncology, 2022).
These are yes or no findings as the source states them, for the method shown. Some results given as binding are weak or reduced against the parent protein; the word gives no strength.

Amino acid sequences for entries named in this document (tags omitted). A change or cut given only in a name is not applied to a line headed by its entry. Residues count along the entry.
UniProt Q01973, residues 30-406: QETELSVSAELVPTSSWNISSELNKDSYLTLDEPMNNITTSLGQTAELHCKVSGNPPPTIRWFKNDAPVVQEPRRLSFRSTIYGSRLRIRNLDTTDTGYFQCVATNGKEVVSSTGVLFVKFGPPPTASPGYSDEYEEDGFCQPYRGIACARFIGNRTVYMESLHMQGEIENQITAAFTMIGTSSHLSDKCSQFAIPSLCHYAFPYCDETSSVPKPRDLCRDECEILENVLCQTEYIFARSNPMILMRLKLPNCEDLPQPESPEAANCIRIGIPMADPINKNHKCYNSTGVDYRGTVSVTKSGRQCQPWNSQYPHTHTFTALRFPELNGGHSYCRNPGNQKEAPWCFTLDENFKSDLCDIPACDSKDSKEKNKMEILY

What was measured:
[1] = target: T1, Recombinant human ROR1-Fc chimera (human, UniProt Q01973 30-406); assay: SPR; Biacore X100; ROR1-Fc amine-coupled on a CM5 chip (~3,200 RU); protein analyte alone (no CS), 30 μl/min, 120 s, dissociation 130 s, 25°C; 50 mM Tris-HCl pH 7.5; both purified
T1 construct: receptor tyrosine kinase-like orphan receptor 1 (ROR1), human; recombinant ROR1-Fc chimera, R&D Systems Cat. No. 9490-RO; also called receptor tyrosine kinase-like orphan receptor 1; recombinant ROR1; source: bought: R&D Systems (Cat. No. 9490-RO)

[2] = target: T1, Recombinant human ROR1-Fc chimera; assay: condition: only with CS-A (premixed at a 1:7 molar ratio); SPR; Biacore X100; ROR1-Fc immobilised on a CM5 chip; protein analyte premixed or pre-treated with CS-A (DKK1:CS-A 1:7 molar ratio); both purified

binding [1]: binds weakly
binding [2]: no binding
B1: recombinant human DKK1 (ligand, UniProt O94907 32-266, looked up)
chain: TLNSVLNSNAIKNLPPPLGGAAGHPGSAVSAAPGILYPGGNKYQTIDNYQPYPCAEDEECGTDEYCASPTRGGDAGVQICLACRKRRKRCMRHAMCCPGNYCKNGICVSSDQNHFRGEIEETITESFGNDHSTLDGYSRRTTLSSKMYHTKGQEGSVCLRSSDCASGLCCARHFWSKICKPVLKEGQVCTKHRRKGSHGLEIFQRCYCGEGLSCRIQKDHHQASNSSRLHTCQRH
notes: Dickkopf-1 (DKK1), human, recombinant, R&D Systems Cat. No. 5439-DK/CF; also called Dickkopf-1; source: bought: R&D Systems (Cat. No. 5439-DK/CF)
